The values below come from patent US11529359B2, “Use of GABAA receptor modulators for treatment of itch” (UNIVERSITÄT ZÜRICH, priority 2016, dated 2022).

The subject of this test is brain membranes prepared from α1,2,3,5 H→R point mutated mice. The format is binding, mice (RRRR). The conditions noted are these: 4 nM [3H]Ro 15-4513; increasing concentrations; n=4. As to the method:
The supernatant was centrifuged for 20 min at 30,000 g and the resulting crude membrane pellet was washed once with buffer. […] Non-specific [^3H]Ro 15-4513 binding was assessed by addition of 10 μM flumazenil to the reaction. Incubation was stopped by rapid vacuum filtration using a semiautomatic cell harvester (Skatron Instruments) and washed filters were subjected to liquid scintillation counting.

In the case of `CN1C(=O)CN=C(c2ccccc2)c2cc(Cl)ccc21` [DZP, Diazepam], the “displacement of [3H]Ro 15-4513 binding” value is “The same was confirmed”.
